Assay: general procedure: Fmoc solid-phase peptide synthesis; Rink amide resin; 2-chloro-trityl chloride resin (1.22 mmol/g loading); PyBOP/NMM; HATU/NMM
[1] = late stage modification step, TFA salt

| Substance | step yield (coupling step, TFA salt) [%] | step yield [1] [%] | further results |
| --- | --- | --- | --- |
| Ac-LYRANAD(β-SH)SPGYS-NH2 | 82 | – | – |
| Ac-LYRANADSPGYS-NH2 | – | 71 | – |
| Ac-LYRANFD(β-SH)SPGYS-NH2 | 78 | – | – |
| Ac-LYRANFDSPGYS-NH2 | – | 76 | – |
| Ac-LYRANGD(β-SH)SPGYS-NH2 | 80 | – | – |
| Ac-LYRANGDSPGYS-NH2 | – | 75 | – |
| Ac-LYRANMD(β-SH)SPGYS-NH2 | 71 | – | – |
| Ac-LYRANMDSPGYS-NH2 | – | 63 | – |
| Ac-LYRANVD(β-SH)SPGYS-NH2 | 75 | – | – |
| Ac-LYRANVDSPGYS-NH2 | – | 71 | – |
| H-(β-SH)DSPGYS-NH2 | – | – | isolated yield (whole synthesis, based on the original 25 μmol resin loading, scale 25 umol, TFA salts): 84%; isolated mass (whole synthesis, scale 25 umol, TFA salts): 14.8 mg |
| H-D(SH)SPCYS-NH2 | – | – | isolated yield (whole synthesis, based on the original 10 mol resin loading, TFA salts): 62% |
| chimadanin | – | – | step yield (coupling step, over one-pot four-step sequence, TFA salts): 35% yield |

From patent US20160122383 (published 2016)
